The source of these data is paper PMC7819943, “Rice protein-binding microarrays: a tool to detect cis-acting elements near promoter regions in rice”.

By UniProt entry, the sequences of proteins in these tests, tags left out.
UniProt Q0JBA9, entry or part of it: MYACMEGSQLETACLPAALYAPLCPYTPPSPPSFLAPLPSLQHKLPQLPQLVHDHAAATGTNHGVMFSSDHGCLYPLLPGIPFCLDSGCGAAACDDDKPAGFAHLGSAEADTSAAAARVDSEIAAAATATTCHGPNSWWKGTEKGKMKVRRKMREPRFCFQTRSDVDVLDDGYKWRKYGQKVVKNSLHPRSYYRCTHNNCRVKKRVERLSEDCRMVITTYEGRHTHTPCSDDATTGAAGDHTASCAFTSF

This is one part of the list.

The target in this assay is OsWRKY34 (Oryza sativa, UniProt Q0JBA9 1-250). Put plainly: protein-binding microarray (RPBM); PBS, 2% BSA, 51.3 ng/ul salmon testes DNA, 50 uM zinc acetate, 200 nM TF, 25 C, 1 h; high values mean tight binding. The conditions noted are these: protein: recombinant; tags: N-terminal polyhistidine and DsRed monomer fusion (pET32a); label: CyDye5-dUTP incorporated in the synthesized complementary strand; 3' TTTTT single-stranded linker to array surface; dsDNA, one strand shown. An outline of the steps: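 In PBS with 2% BSA, salmon testes DNA and 50 µM zinc acetate, 200 nM protein was incubated on a custom Agilent array at 25 °C for 1 h and then washed off. The array had been made double-stranded by primer extension with Cy5-dUTP and blocked with 2% BSA. The proteins were transcription factors fused N-terminally to polyhistidine and DsRed, expressed in E. coli BL21-CodonPlus and purified on Ni–NTA. The binding signal is per-feature fluorescence intensity (arbitrary units) from an Axon 4000B scanner.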
Consider “GGCCGGAGGAGGATATGTTGGGTCATGGTTTTGGCACGCTCGGAGTCACCTAGTGCAG”, for which the binding signal is 9370 fluorescence intensity (a.u.).
As for “TAAATTCTGCCTGTTCTTTTTCAGATCTGCGCTCCGTGCTCGGAGTCACCTAGTGCAG”, the figure is 10300 fluorescence intensity (a.u.); as for “AACCCACAATTACGCGGCGGTGCATTCTCGTTGCTTTGACCGGAGTCACCTAGTGCAG”, 11400 fluorescence intensity (a.u.); as for “CGTTCGATCATCACCTCGTTTCTTGCTGAGATTATAGCCACGGAGTCACCTAGTGCAG”, 8410 fluorescence intensity (a.u.).
As for “AACCTGTCATACACACACAACTTTTCAGTCACATCATCTCCGGAGTCACCTAGTGCAG”, the figure is 8510 fluorescence intensity (a.u.).
Turning to “TAGTCAACGGATCACGAGAGATGTTCCCAGCCCTGTATTTCGGAGTCACCTAGTGCAG”, the binding signal was 8040 fluorescence intensity (a.u.).
For the sequence “AACTTGTTCTTGGCACACAGACACCAATACTCACATGCAACGGAGTCACCTAGTGCAG”, the binding signal is 9180 fluorescence intensity (a.u.).
The figure for “GCTTAGTTACTCCTTATTTTTCGTTGGCACATTTTTCAAACGGAGTCACCTAGTGCAG” is 9760 fluorescence intensity (a.u.).
The figure for “ATTTAACAAAACCAAAGCTTTTTTCCTTTTCTCTTGGATGCGGAGTCACCTAGTGCAG” is 8030 fluorescence intensity (a.u.).
The figure for “TGTATTTTTCCTGTGGTTTTCCAATCCTATGTTTTTCATACGGAGTCACCTAGTGCAG” is 12400 fluorescence intensity (a.u.); for “TTCGAACATTTTATAGCCGTTACACTCCCAATCTCCTCGTCGGAGTCACCTAGTGCAG” it is 8960 fluorescence intensity (a.u.).
As to “AAAGCTTACTACTGGTACTACTATTCTTGTACTCATATGTCGGAGTCACCTAGTGCAG”, the binding signal was 8820 fluorescence intensity (a.u.).
The figure for “ATCTTCATCCTCAGTTTTTGCCCATTCTGAAACACGACTTCGGAGTCACCTAGTGCAG” is 8630 fluorescence intensity (a.u.); for “ATCTCGCACCAACAAGTCCGCCGTCCGCGCGTCGTCAAATCGGAGTCACCTAGTGCAG” it is 9880 fluorescence intensity (a.u.).
The figure for “TGTTGAATGATATATCACATGCATATTTATTCTTTTTCTTCGGAGTCACCTAGTGCAG” is 9050 fluorescence intensity (a.u.).
The figure for “CGCCCCTCCTGCCACCCGCTGCGGCAAGCGCTTTTTTGACCGGAGTCACCTAGTGCAG” is 8740 fluorescence intensity (a.u.).
For “GGCGCGTATTTTTCGTTTGGGCACGTATTTTTCGTTCTTTCGGAGTCACCTAGTGCAG”, the binding signal is 9540 fluorescence intensity (a.u.).
As for “TCCCAACCCCATCCGCCTTGTTTTCCACGCGCACGCTTCCCGGAGTCACCTAGTGCAG”, the figure is 9510 fluorescence intensity (a.u.).
In the case of “ACAAATCGGTCATTCTTGTCCACCACGCGTCAGTTTATCACGGAGTCACCTAGTGCAG”, the binding signal was 10300 fluorescence intensity (a.u.).
The figure for “CCGTCAACTGTATTGGGTCAACGAAACGGTGGTTGGACCGCGGAGTCACCTAGTGCAG” is 10400 fluorescence intensity (a.u.); for “GTGTGGTGTTACGTGCGTAGTGGTGTGTATATATATCTGTCGGAGTCACCTAGTGCAG” it is 9000 fluorescence intensity (a.u.); for “AGTAACTCTACAACCACTTCGCGCACTAATTATCTCTTTCCGGAGTCACCTAGTGCAG” it is 8680 fluorescence intensity (a.u.).
As for “CCCTCCCTCGCTTGACTTCTCTCTCCGCGTCACTTCTCTTCGGAGTCACCTAGTGCAG”, the figure is 12800 fluorescence intensity (a.u.); as for “TTACTTTTTAGGGTTTGTGTTTTTGCCCTTACTTTTTTCACGGAGTCACCTAGTGCAG”, 14200 fluorescence intensity (a.u.); as for “CTCTGAGTCTGTCTCGCTCTCTGACCCCGCACTGCAATCCCGGAGTCACCTAGTGCAG”, 8560 fluorescence intensity (a.u.).
As for “GTAGTTAGCTATACCACTCCGTTAAGCTTGCTCTAAGACTCGGAGTCACCTAGTGCAG”, the figure is 8310 fluorescence intensity (a.u.).
Turning to “TGCCAACGTTTGACTGTCCGTCTTATATGAAATTTTTTTACGGAGTCACCTAGTGCAG”, the binding signal is 8140 fluorescence intensity (a.u.).
The figure for “GTTTTGACCACCGGTGACCTCCCAGCTATAACCAACCCAACGGAGTCACCTAGTGCAG” is 10200 fluorescence intensity (a.u.).
For the sequence “GCTGCGCTCACCTACCGCCGCTCGGCTACTGCGCGGACCACGGAGTCACCTAGTGCAG”, the binding signal is 8180 fluorescence intensity (a.u.).
The figure for “CTCGTTGACAGCCCTACTGCCTGCCTATGTGAATTTCCATCGGAGTCACCTAGTGCAG” is 8310 fluorescence intensity (a.u.); for “CCCTTAAGGTAGATCATCACCACTCTCCATCATCTCATCACGGAGTCACCTAGTGCAG” it is 8520 fluorescence intensity (a.u.); for “TTTCGTTACTGTTCCCCATTGGTTTTTGTCATTTTGCTGTCGGAGTCACCTAGTGCAG” it is 10200 fluorescence intensity (a.u.).
As for “TGTGGATTTGTGGTGCCATGGCTTTTTCGGCTGTCAACACCGGAGTCACCTAGTGCAG”, the figure is 8800 fluorescence intensity (a.u.).
As for “CTCGCGCGCCTCTCGCTTGGTTTTTGGTAGTGACCTCTCGCGGAGTCACCTAGTGCAG”, the binding signal is 9080 fluorescence intensity (a.u.).
The figure for “GGGGCTTGTATTTATACCCATAGGTGTCCCCTTGTCCAAGCGGAGTCACCTAGTGCAG” is 9840 fluorescence intensity (a.u.).
As for “TTATTTCGTGGTCCCATAATGCTCACACATTACTCATAATCGGAGTCACCTAGTGCAG”, the figure is 8950 fluorescence intensity (a.u.).
The figure for “CGATTCCCGATGCTCGCGAAGTTTCTTTTCTCCGTTTCTCCGGAGTCACCTAGTGCAG” is 9110 fluorescence intensity (a.u.).
For the sequence “TCTATATCTGGTTTTGCATCCCTCAACCGTAAACCAAATACGGAGTCACCTAGTGCAG”, the binding signal is 8570 fluorescence intensity (a.u.).
The figure for “TACATACACTTATTTTCGACATTGTATTCTATAATTATAGCGGAGTCACCTAGTGCAG” is 9800 fluorescence intensity (a.u.); for “CCCGCTTCCTGCCATACATGCATTTTGGTCCTAGTAATCACGGAGTCACCTAGTGCAG” it is 8290 fluorescence intensity (a.u.); for “GCAGAAGCAGGCAGTCCATCGATCATCTCTTCTCTTCCAGCGGAGTCACCTAGTGCAG” it is 9410 fluorescence intensity (a.u.).
Take “TCGAACTGATCCAACGTACCAGAATTCGCTAGTTTCTTATCGGAGTCACCTAGTGCAG”: the binding signal was 8620 fluorescence intensity (a.u.).
